Reference: patent publication US8557300B2 (priority 2005, dated 2013)
Read-outs that look alike come from different tables or passages of the source.

## O=NO [NO2^−, nitrite]
15 mM NO2^− in CF ASL, pH 6.43
  NO level generated: 562 nM
15 mM NO2^− in LB at pH 6.5
  NO level generated: 489 nM
